# Measured values: the supplement of paper PMC11732987, “Enantioselective OTUD7B fragment discovery through chemoproteomics screening and high-throughput optimisation” (Communications Chemistry, 2025)
# The chains behind the UniProt entries cited, without tags or fusion partners. Where a name states a change or a piece, a line headed by the entry shows the natural chain unless it says otherwise. Residues count along the entry.
# UniProt Q9NRZ5, 257-276: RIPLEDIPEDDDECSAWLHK
# UniProt P55265, 386-408: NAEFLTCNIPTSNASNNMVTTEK
# UniProt Q8TCU4, 419-439: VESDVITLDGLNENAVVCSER
# UniProt Q13443: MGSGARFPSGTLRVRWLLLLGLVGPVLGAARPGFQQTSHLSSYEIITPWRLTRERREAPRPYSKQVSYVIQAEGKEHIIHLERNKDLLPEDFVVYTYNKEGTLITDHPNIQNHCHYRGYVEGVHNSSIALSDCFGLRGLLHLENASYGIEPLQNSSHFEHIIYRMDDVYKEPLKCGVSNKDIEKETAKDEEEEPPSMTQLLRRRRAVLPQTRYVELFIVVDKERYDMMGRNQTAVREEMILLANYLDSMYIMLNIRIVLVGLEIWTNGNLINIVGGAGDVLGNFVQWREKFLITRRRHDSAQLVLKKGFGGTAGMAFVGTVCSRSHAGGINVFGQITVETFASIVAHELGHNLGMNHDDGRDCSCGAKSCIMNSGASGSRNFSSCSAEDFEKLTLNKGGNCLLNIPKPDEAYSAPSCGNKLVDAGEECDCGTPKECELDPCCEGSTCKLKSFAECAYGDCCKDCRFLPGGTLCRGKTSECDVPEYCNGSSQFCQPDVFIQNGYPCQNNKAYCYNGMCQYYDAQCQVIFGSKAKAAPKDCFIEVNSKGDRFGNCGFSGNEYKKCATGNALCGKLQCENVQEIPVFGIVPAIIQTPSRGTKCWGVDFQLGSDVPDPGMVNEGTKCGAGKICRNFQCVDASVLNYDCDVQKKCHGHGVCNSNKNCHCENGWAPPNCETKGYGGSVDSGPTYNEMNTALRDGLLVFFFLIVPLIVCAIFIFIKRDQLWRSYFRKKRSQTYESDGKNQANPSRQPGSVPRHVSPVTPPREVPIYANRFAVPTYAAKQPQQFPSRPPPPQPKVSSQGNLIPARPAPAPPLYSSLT
# UniProt P13716: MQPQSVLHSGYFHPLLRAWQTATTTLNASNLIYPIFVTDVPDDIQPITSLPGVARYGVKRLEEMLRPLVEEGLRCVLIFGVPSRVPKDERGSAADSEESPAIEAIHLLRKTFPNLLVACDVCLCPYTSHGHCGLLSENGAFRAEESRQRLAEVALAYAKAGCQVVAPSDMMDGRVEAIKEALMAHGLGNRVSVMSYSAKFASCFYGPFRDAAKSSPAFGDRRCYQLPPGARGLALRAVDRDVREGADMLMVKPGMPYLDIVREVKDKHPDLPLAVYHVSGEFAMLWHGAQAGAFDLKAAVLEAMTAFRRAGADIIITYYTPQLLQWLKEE
# UniProt Q02952, 1123-1148: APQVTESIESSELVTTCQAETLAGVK
# UniProt Q12955: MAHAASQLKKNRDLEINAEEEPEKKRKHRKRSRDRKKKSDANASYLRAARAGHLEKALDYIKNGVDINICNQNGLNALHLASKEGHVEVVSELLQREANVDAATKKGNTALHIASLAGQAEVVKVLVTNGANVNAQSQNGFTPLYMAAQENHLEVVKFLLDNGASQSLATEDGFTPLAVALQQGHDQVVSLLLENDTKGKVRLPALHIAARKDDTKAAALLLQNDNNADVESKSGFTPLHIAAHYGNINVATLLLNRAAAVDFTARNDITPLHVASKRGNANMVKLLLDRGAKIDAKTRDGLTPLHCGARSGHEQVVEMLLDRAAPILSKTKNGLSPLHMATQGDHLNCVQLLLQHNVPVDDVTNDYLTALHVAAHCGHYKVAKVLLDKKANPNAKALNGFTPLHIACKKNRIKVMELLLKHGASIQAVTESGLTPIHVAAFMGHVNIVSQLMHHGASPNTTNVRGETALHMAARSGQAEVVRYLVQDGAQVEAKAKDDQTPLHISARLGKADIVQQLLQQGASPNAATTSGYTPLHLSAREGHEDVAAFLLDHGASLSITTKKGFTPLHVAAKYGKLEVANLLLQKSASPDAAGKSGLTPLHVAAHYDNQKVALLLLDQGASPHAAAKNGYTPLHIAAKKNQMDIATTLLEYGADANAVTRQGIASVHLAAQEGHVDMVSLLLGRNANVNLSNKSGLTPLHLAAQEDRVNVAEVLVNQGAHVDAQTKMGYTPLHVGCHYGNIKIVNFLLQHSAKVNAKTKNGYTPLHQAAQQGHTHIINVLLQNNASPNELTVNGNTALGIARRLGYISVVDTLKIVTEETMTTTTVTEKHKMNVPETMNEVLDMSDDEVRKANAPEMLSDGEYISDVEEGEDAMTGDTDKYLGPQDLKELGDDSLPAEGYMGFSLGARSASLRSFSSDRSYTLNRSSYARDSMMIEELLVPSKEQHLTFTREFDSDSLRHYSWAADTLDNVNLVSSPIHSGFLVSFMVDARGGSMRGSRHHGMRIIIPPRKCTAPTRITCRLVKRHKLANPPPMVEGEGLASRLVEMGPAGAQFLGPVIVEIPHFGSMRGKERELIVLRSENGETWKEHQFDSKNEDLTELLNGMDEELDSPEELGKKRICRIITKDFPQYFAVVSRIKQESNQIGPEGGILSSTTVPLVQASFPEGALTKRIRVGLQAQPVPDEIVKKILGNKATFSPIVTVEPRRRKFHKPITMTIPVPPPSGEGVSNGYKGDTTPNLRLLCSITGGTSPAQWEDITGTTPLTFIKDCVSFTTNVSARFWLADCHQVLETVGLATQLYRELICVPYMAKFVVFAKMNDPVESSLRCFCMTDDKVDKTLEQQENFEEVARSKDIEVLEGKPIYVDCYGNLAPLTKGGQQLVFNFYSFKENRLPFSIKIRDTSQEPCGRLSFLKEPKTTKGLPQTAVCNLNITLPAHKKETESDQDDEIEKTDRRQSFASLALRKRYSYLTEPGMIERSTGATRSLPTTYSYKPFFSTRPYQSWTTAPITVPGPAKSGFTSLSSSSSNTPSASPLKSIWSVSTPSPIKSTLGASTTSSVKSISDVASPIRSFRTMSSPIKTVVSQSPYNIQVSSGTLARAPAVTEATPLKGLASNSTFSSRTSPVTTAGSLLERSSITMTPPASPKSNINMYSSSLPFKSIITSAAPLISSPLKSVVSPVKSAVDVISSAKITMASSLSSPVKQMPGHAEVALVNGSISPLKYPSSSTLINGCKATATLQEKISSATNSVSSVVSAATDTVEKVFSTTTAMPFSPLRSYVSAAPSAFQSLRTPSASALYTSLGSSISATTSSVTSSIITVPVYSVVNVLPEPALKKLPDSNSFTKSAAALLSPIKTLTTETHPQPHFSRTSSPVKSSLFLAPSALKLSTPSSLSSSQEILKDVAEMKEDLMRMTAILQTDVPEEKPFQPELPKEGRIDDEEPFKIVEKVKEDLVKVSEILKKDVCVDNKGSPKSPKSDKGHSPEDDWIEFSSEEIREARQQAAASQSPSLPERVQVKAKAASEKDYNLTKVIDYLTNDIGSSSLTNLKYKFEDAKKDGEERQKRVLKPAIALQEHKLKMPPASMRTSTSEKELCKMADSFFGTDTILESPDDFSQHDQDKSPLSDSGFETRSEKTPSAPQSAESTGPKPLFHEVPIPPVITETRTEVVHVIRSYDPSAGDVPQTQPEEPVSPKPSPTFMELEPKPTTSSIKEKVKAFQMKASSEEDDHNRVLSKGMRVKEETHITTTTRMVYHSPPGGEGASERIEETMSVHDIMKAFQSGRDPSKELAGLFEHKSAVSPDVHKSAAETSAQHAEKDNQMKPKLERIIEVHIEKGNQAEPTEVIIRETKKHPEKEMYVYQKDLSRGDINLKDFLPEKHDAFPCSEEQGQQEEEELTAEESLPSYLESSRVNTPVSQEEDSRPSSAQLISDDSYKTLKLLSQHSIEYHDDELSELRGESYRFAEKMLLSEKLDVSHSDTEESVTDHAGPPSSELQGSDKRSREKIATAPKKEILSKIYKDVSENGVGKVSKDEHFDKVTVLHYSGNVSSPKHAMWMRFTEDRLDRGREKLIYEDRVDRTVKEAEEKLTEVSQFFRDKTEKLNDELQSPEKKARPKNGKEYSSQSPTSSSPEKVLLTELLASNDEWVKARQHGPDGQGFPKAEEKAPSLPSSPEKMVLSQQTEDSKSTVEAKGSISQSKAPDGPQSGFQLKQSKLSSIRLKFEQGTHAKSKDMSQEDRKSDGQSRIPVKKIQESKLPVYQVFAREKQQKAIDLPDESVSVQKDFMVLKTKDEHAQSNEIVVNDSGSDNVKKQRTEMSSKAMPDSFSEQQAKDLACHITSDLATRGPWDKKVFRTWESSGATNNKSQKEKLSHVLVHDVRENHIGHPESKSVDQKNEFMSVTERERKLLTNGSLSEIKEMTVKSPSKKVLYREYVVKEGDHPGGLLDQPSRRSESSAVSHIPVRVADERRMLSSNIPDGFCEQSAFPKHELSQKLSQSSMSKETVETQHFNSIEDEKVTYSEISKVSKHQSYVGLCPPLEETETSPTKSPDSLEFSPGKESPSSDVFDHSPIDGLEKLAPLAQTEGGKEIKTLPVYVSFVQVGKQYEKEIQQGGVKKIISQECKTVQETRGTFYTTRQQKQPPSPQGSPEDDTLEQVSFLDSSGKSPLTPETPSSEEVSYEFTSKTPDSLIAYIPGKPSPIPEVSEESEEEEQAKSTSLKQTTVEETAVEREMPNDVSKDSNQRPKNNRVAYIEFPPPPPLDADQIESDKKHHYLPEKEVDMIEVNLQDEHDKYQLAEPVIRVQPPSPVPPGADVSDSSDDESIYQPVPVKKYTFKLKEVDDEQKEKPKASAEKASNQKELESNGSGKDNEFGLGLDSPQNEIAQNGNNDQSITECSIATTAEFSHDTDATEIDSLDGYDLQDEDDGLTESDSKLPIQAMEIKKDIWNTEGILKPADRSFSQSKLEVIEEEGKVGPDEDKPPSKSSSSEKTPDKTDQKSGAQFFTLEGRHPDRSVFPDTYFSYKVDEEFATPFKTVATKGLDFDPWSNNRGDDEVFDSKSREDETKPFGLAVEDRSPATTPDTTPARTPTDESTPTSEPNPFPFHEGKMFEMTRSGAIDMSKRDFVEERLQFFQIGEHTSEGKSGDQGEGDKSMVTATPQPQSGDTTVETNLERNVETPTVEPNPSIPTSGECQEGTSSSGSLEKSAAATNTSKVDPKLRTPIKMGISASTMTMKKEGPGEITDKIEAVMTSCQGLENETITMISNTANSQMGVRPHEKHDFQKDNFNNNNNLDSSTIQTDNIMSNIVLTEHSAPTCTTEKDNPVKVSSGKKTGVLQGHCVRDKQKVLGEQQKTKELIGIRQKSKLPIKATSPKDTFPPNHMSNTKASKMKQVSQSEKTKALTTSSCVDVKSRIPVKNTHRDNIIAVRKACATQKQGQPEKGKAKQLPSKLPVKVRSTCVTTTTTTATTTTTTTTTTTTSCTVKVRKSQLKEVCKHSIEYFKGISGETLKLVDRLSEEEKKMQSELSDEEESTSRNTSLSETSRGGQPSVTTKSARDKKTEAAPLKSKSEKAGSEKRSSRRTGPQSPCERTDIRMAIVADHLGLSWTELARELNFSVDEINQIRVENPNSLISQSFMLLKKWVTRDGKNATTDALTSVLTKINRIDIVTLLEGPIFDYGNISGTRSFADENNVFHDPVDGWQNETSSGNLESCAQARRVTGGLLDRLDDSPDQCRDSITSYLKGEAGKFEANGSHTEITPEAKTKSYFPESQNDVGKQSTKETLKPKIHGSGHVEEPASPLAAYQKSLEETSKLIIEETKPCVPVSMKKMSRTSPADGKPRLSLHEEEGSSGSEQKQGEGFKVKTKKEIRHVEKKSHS
# UniProt Q96BJ3: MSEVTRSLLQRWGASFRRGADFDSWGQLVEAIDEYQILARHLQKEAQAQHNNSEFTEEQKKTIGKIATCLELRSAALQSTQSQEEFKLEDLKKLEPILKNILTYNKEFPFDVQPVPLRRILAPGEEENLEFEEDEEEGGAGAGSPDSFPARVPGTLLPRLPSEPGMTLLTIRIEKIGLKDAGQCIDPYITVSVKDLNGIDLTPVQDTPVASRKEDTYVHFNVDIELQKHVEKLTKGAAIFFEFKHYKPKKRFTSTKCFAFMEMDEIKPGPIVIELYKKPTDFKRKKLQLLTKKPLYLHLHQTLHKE
# UniProt Q6NS38: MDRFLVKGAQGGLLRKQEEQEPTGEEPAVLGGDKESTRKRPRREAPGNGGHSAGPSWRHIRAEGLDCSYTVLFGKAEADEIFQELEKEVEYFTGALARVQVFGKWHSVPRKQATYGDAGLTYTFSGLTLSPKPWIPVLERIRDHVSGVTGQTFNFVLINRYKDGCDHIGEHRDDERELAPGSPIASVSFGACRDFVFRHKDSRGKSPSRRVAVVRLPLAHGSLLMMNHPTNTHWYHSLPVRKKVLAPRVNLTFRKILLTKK
# UniProt Q13155: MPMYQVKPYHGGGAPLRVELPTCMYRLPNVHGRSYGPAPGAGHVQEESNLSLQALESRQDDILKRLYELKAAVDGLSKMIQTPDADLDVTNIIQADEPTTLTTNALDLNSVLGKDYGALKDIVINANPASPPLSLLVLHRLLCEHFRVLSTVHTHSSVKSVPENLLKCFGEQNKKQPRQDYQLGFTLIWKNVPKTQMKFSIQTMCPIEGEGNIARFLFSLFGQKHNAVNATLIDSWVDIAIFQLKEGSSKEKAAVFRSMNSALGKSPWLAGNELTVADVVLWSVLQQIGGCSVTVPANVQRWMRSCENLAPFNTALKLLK
# The other results are listed elsewhere or left out. The data scatter; read single values as rough.
# Compound: ClCC(=O)N[C@@H]1CCCc2ccccc12
# Test: log2 mean competition ratio of IA-DTB cysteine labelling (DMSO/compound) (log2 ratio); higher = stronger cysteine engagement by compound
# Details: 50 µM; treatment time: 4 h; cell line lysate: HEK293T
# Experimental: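 IA-DTB competitive cysteine chemoproteomics in HEK293T RIPA lysate. Lysates were treated with compound 29 or 30 at 50 or 200 µM for 4 h, then IA-DTB (500 µM, 1 h), trypsin-digested, NeutrAvidin-enriched and analysed by diaPASEF. Competition ratio = intensity DMSO / intensity compound (n=4 treated, n=64 DMSO); binding: mean log2 CR ≥ 1 and p ≤ 0.05 plus QC filters. Target is the cysteine site.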
row,Target,log2 mean competition ratio
1,ANAPC5 C203 (UniProt Q9UJX4),0.0186
2,ACTN1 C480,0.647
3,AGPAT4 C270 (UniProt Q9NRZ5),0.264
4,ADCY9 C693 (UniProt O60503),-0.279
5,AKAP8 C173 (UniProt O43823),0.15
6,ALDH1L2 C707 (UniProt Q3SY69),-0.118
7,ADAR C392 (UniProt P55265),-0.161
8,ADGRA2 C1147,0.133
9,AIP C208 (UniProt O00170),0.29
10,ALMS1 C2395 (UniProt Q8TCU4),0.105
11,ACSS3 C428 (UniProt Q9H6R3),0.631
12,AHNAK C1833 (UniProt Q09666),-0.128
13,ADAM9 C370 (UniProt Q13443),0.121
14,AGAP3 C263 (UniProt Q96P47),-0.228
15,AKT2 C124 (UniProt P31751),-0.0662
16,ALMS1 C436 (UniProt Q8TCU4),-0.345
17,ALAD C223 (UniProt P13716),0.22
18,AGPAT5 C217 (UniProt Q9NUQ2),0.37
19,ACTA2 C219,0.175
20,AKAP12 C1139 (UniProt Q02952),-0.202
21,ALX1 C71,-0.0188
22,ANK3 C4233 (UniProt Q12955),0.608
23,ANKHD1 C213,-0.16
24,AIDA C69 (UniProt Q96BJ3),0.162
25,ANAPC2 C179 (UniProt Q9UJX6),0.148
26,AKAP1 C438 (UniProt Q92667),0.113
27,AGGF1 C494 (UniProt Q8N302),-0.217
28,ALKBH2 C67 (UniProt Q6NS38),-0.191
29,AIMP2 C168 (UniProt Q13155),-0.246

# Records 13–14, reprinted for reference:
row,Target,log2 mean competition ratio
13,ADAM9 C370 (UniProt Q13443),0.121
14,AGAP3 C263 (UniProt Q96P47),-0.228
